Results reported in US20250057918A1.
Results are given in words; binding and its absence hold for the method and conditions named. Some results given as binding are weak or reduced against the parent protein; the word gives no strength.

Experiments:
[1] = biological target: T1, mouse IL-18BP (amino acids 31-194) (mouse) (UniProt Q9Z0M9); assay: SPR, mIL-18 as analyte on immobilised biotinylated mIL-18BP
T1 sequence (chain, biotinylated on the AviTag (BirA ligase)): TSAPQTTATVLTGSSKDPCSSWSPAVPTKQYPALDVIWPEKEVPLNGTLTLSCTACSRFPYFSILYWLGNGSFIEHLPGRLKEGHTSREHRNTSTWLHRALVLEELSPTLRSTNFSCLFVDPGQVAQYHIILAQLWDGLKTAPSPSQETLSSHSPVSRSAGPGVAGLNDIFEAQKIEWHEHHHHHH

[2] = biological target: T1, mouse IL-18BP (amino acids 31-194) (mouse); assay: flow cytometry, mIL-18BP titrated on yeast-displayed murine IL-18 (binding isotherm, %Max)

B1: wild-type mouse IL-18 (mature form) (ligand)
chain: NFGRLHCTTAVIRNINDQVLFVDKRQPVFEDMTDIDQSASEPQTRLIIYMYKDSEVRGLAVTLSVKDSKMSTLSCKNKIISFEEMDPPENIDDIQSDLIFFQKRVPGHNKMEFESSLYEGHFLACQKEDDAFKLILKKKDENGDKSVMFTLTNLHQS
B1 was tested, and the binding [1] was “binds” and the binding [2] was “binds”.
